Most values lie at the floor of the assay. Slopes are relative: functional sequences can read slightly below zero.
Each substance was assayed on Saccharomyces cerevisiae PS128 hsf1 delta, HSF1(1-493) fusion (assay: growth estimate (transactivation domain function in HSF1 fusion, heat-shock survival) (a.u. (slope of normalised read count over time)); higher = stronger growth at 37°C, i.e. more transactivation activity). Settings: library: random library.
Description: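 Random 60-nt DNA library encoding peptides of up to 20 aa, fused to the C-terminus of yeast HSF1 residues 1-493 (C-terminal TAD deleted) and expressed from the native HSF1 promoter on a CEN plasmid in hsf1-deleted S. cerevisiae PS128. Cells were selected at 37°C on -trp 5-FOA plates for 0, 2, 4, 6 and 8 days and amplicons were sequenced. Growth estimate is the slope of a robust linear fit of total-sum-normalised read counts (normalised to the first time point) over time, using at least 2 replicates. Sequences are classed functional (TAD activity) above a threshold of -0.13, set from stop-codon control sequences.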

| Substance | growth estimate |
| --- | --- |
| ASGAIVMMIALFLGDRGYPG | < -0.25 |
| KQSLLDGPRKSLSGMFLKPS | < -0.25 |
| LGVGSFINSPGGALSLMKPK | < -0.25 |
| IRAVFPAWHVVGE | < -0.25 |
| QNGTG | < -0.25 |
| IASCTRHHLCATCITA | < -0.25 |
| MRRRATDV | < -0.25 |
| ASGARLPSRR | < -0.25 |
| LGYRGGALTIFEK | < -0.25 |
| SGTRMRRSPWAKAKVPQSRA | < -0.25 |
| HFLSLHDRGVPWYRPIKLLV | < -0.25 |
| REVQTKYGRRRISEGRSPKV | < -0.25 |
| TGSRSFASHTV | < -0.25 |
| RKTCTRSSKSTPG | < -0.25 |
| RCKS | < -0.25 |
| SGQRSGTESERRSASDWLAS | -0.246 |
| ALGYNQSIDQGVLLRFSVRD | < -0.25 |
| NRVFRGP | -0.25 |
| RRTTSVYIASIISNIQVAKP | < -0.25 |
| GHI | < -0.25 |
| SEPLSRVSERRNVTCQ | < -0.25 |
| GVD | < -0.25 |
| LID | < -0.25 |
| LHQSG | < -0.25 |

| Substance | growth estimate |
| --- | --- |
| QTVSALFLATVGHAFPRYFQ | < -0.25 |
| FIRRSGNG | < -0.25 |
| LQIYSRPDSRIVPNGLVMRL | < -0.25 |
| SLGWLRMQAKLLEEGVGARG | < -0.25 |
| PRRAHKIATVTFGSDALSPA | < -0.25 |
| HLISTVGGSGPVMCLPRADN | -0.246 |
| YVSLP | < -0.25 |
| ARNGTVERLCSCHGKRLHPA | < -0.25 |
| GHGENPHKMSDPNNAG | < -0.25 |
| LYAGTRANSTYVRVHISACG | < -0.25 |
| AANNLWGGSRSLSRYGHPIA | < -0.25 |
| RPSRACHCLLVSRSTSRI | < -0.25 |
| VMVHLRLSHT | < -0.25 |
| RHGVINFWRHCITVGQPFNL | < -0.25 |
| LHDEGDWAGSAQPGLLEVAC | -0.245 |
| PGVPSKVLLHASVDVRPAAR | < -0.25 |
| TKSGWGSWGPQVICS | < -0.25 |
| WPKPLLMAKFNQERS | < -0.25 |
| RDKCRRIVIFGVMTWFVNSN | < -0.25 |
| TGDRARSSVNRVASRGSVGY | < -0.25 |
| FVSGKNRSFNLHVANLKARQ | < -0.25 |
| WAI | < -0.25 |
| HGLRSIDHIEPQRQLLCWSS | < -0.25 |
| SAIFVFSSTGFKKRTVAGLC | < -0.25 |

| Substance | growth estimate |
| --- | --- |
| YWDRSCFMGLWYSYSEGTLD | < -0.25 |
| TTLHLFIDASATMPHKPESG | < -0.25 |
| PWSATILLPQKWRGAPEWLR | < -0.25 |
| RVFISTSSLLSALVWIPGGD | < -0.25 |
| GLLWEVN | < -0.25 |
| PRKLCE | < -0.25 |
| VGSHHRFGIIPRRCETYW | < -0.25 |
| DPRAPFAIAVSRQRSTLCVV | < -0.25 |
| RCVTRLHWRLDTY | < -0.25 |
| LIR | < -0.25 |
| VDFITMLTRVVVSKPTHWML | < -0.25 |
| DWRSTQPHGILLSANSDPCP | < -0.25 |
| TSGLKSYTLWWSLSKKVAGD | < -0.25 |
| APKALGGKTVV | < -0.25 |
| SAGPAGASSLGPLAVQGRRA | < -0.25 |
| AGSACTHKGVLVDQKRTEAA | < -0.25 |
| GATVVS | < -0.25 |
| VLKRVEGTRTLIHRNALGSW | < -0.25 |
| WPTSTFKCRPQQLSPSCSSC | < -0.25 |
| HPG | < -0.25 |
| KMKSRADGF | < -0.25 |
| ESECQRAAVESKIAFV | < -0.25 |
| SSRSWG | < -0.25 |
| WTCGCRAHAMLF | < -0.25 |

| Substance | growth estimate |
| --- | --- |
| KPSEVEPFVRFTLEPLWVGQ | -0.228 |
| RGVNRFQSPDKSVNIGTY | < -0.25 |
| CSTP | < -0.25 |
| SQIYVSHWKCGRL | < -0.25 |
| SHRDLGHGSV | < -0.25 |
| ARRSGQASRDSTIGGNAPER | < -0.25 |
| SGLESSKMGLGAT | < -0.25 |
| IGIEP | < -0.253 |
| EWIRLEGRAIVTIGIPFILY | < -0.25 |
| PNASNVPQWSWELWYGTAHV | -0.196 |
| ANIFGGPLTLISYKTNLRLN | -0.246 |
| SPSGGCEGSMIGDLSLAL | < -0.25 |
| GGNNDAWRLCKGRFWAAVAW | < -0.25 |
| VAIRVRGSLGVENSGSPRSS | < -0.25 |
| ARLSIGGKNPRRMPRQAPTR | -0.245 |
| LMELSRSTYRPCATLLVFY | < -0.25 |
| RVGIICNGVKTAYKGVRERA | < -0.25 |
| WGALPSCLVCVWCGKLVESL | < -0.25 |
| ARVCAGDTWHLL | < -0.25 |
| IALTGRSQYNAW | < -0.25 |
| LARFRENSNDWLLFTETQ | < -0.25 |
| KCPVCKN | < -0.25 |
| QTDSILDY | < -0.25 |
| LMIRYRGDPALLVECKARRA | 0.375 |

| Substance | growth estimate |
| --- | --- |
| SQGPV | < -0.25 |
| FDRRLHEREHPTAHDACVEV | < -0.25 |
| NEHNMLDLMPSLISGRCNKR | < -0.25 |
| WLQGAGICV | < -0.25 |
| GLPMSSFCNQVLLGLFSFLL | < -0.25 |
| QVWEGIKTSGQISLCFIKNQ | < -0.25 |
| LDSRTSSGAIITGLSGWRPR | < -0.25 |
| SEQQLDRVSI | < -0.25 |
| RWEVSFGMILIHVGSDESKV | < -0.25 |
| EPVVQLPKELARPTKIAT | -0.24 |
| GRKKPMSLGGIITDRTRFPP | < -0.25 |
| ALNAAPADFRARNPVIEVYI | < -0.25 |
| SLGTLVNH | < -0.25 |
| ATLKEFSFALFAGRI | < -0.25 |
| IELPRSACMLLWNTLTAWLI | < -0.25 |
| HVRFGLASGESKRRAANIFV | < -0.25 |
| GCHGTRDKKGGLETSESATL | < -0.25 |
| SIEGLQTRWGTQPLLIYSVA | -0.246 |
| GVVAF | < -0.25 |
| NDPLILSQPLVVR | < -0.25 |
| SSDWREAGCSISSLSGSCQI | -0.235 |
| KHLHDHFRCSTWSLYQRSAI | < -0.25 |
| NIGGHPAHSSTDQFAVSDRY | < -0.25 |
| SSSSGPGNS | < -0.25 |

| Substance | growth estimate |
| --- | --- |
| VVNENLPVWRF | < -0.25 |
| AVMVP | < -0.25 |
| QNTCSGIIGLGLKTVVNSRR | < -0.25 |
| VVEFKYGDVVESSQVCISAD | < -0.25 |
| NVIAGS | < -0.25 |
| GLQLNSAWERY | < -0.25 |
| TWDDQSVTGSGQIKLYSSAF | < -0.25 |
| CDGCGTKNDSSGF | -0.248 |
| PFRFP | < -0.25 |
| TATAGTFISPYMSAFRRVST | < -0.25 |
| RNCVIFPLSRGQVERHLD | < -0.25 |
| RFVCLARMTDLELAGPSFGE | < -0.25 |
| LRGNFMEFTAIVLSKVVRRA | < -0.25 |
| RHFRVL | < -0.25 |
| WGAITA | < -0.25 |
| IILLGKVRLCRFVCDTYI | < -0.25 |
| AQSLLIGTARVVGEWAQGKD | < -0.25 |
| GDQVSWAALLPVSI | -0.194 |
| TYV | < -0.25 |
| PRRSRYFNTRFGSSEQDLTH | < -0.25 |
| GHGVLG | -0.218 |
| IDDIHHDRRP | < -0.25 |
| RLSRQGFARVSPYGVAVPVV | < -0.25 |
| QED | < -0.25 |

| Substance | growth estimate |
| --- | --- |
| IADRKFL | < -0.25 |
| RQIGGATIRKGR | < -0.25 |
| FRVNYAIGGLVLRDSASP | < -0.25 |
| QDYTIR | < -0.25 |
| TSGSWTADKTRGWSAWNSDG | < -0.25 |
| ESYGSRTLSCRDFGLSMTPP | < -0.25 |
| RHYRFMC | < -0.25 |
| IGGIYPERLDDAIWQAQIAP | < -0.25 |
| GGLACRGVDRG | < -0.25 |
| YLLSFLFVSKHH | < -0.25 |
| RGRRSLGTLPGQFILFIYGG | < -0.25 |
| AKDQPYQRLRESGHQGMNCA | < -0.25 |
| QAYNHPEYAAKGVRIRWCYT | < -0.25 |
| PEKSESCLNGLVRNRDRSEE | -0.228 |
| PTYASNIS | < -0.25 |
| RSLRRDVLVILANGSRRESS | < -0.25 |
| RPELHIGRF | < -0.25 |
| LAYCQPVNQGISG | -0.229 |
| ISIEAGARDDCPLCEWAGTE | 32.4 |
| SPKRGNTSWLRILFLSTWIS | < -0.25 |
| VIARRRGIEWDIR | < -0.25 |
| KGFYAFSGLPAPGRNLSHPA | -0.243 |
| CWKLTSYNYSGWPSPRPLSG | -0.0944 |
| QNLRLRCNVRKGCG | < -0.25 |

| Substance | growth estimate |
| --- | --- |
| KNAYLAGCGCYNQGA | < -0.25 |
| LTRVRVTGGAA | < -0.25 |
| MVTMIASTMP | < -0.25 |
| GTGPAWRTY | < -0.25 |
| RGTDAEKGPSRRGNRTSRT | < -0.25 |
| EIRITYYAQRYLRVCHGKAN | < -0.25 |
| AVCSPGTGVSRALGRLRSVR | < -0.25 |
| LSTGMVGKGVMKSRPSNMMI | < -0.25 |
| ERPALSYEYYLRDFPYSFGG | 0.211 |
| VIRGENLLRLLIRNSPTKHD | < -0.25 |
| ESALVKSKPITVKVWQSKTS | < -0.25 |
| PSVSIRFQWLRGGCRVRPGP | < -0.25 |
| SVGVGSVSVGSWTW | < -0.25 |
| TVSR | < -0.25 |
| GSFLFSVRNRTSFEHLPCPG | < -0.25 |
| ATCL | < -0.25 |
| QSIRTALGVVKSLGAEVWAQ | < -0.25 |
| RVVDVVI | -0.243 |
| CCI | < -0.25 |
| MAQGDTDTYKGVPKGK | < -0.25 |
